According to patent publication US8236820B2, “Anti-inflammatory compounds and uses thereof” (priority 2007, dated 2012):

Tests used:
[1] = test system: MCF-7; experiment: Cell viability (MTT) assay, 24-h IC50, MCF-7; type: cell-based, human
[2] = test system: MDA-MB231; experiment: Cell viability (MTT) assay, 24-h IC50, MDA-MB231; type: cell-based, human
[3] = test system: HT29; experiment: Cell viability (MTT) assay, 24-h IC50, HT29; type: cell-based, human; conditions: for Ratio parent NSAID/derivative of 24-h IC50: HT29
[4] = test system: SW480; experiment: Cell viability (MTT) assay, 24-h IC50, SW480; type: cell-based, human
[5] = test system: MIA-PaCa-2; experiment: Cell viability (MTT) assay, 24-h IC50, MIA-PaCa-2; type: cell-based, human; conditions: for Ratio parent NSAID/derivative of 24-h IC50: MIA-PaCa-2
[6] = test system: BxPC-3; experiment: Cell viability (MTT) assay, 24-h IC50, BxPC-3

Row | Compound | Ratio parent NSAID/derivative of 24-h IC50 [1] | Ratio parent NSAID/derivative of 24-h IC50 [2] | Ratio parent NSAID/derivative of 24-h IC50 [3] | Ratio parent NSAID/derivative of 24-h IC50 [4] | Ratio parent NSAID/derivative of 24-h IC50 [5] | Ratio parent NSAID/derivative of 24-h IC50 [6] | Fold Enhancement ([1]; IC50 VPA vs phospho-VPA) | Fold Enhancement ([2]; IC50 VPA vs phospho-VPA) | Fold Enhancement ([3]; IC50 VPA vs phospho-VPA, HT-29) | Fold Enhancement ([4]; IC50 VPA vs phospho-VPA) | Fold Enhancement ([5]; IC50 VPA vs phospho-VPA, MIA PaCa2) | Fold Enhancement ([6]; IC50 VPA vs phospho-VPA)
1 | CCOP(=O)(OCC)OCCCCOC(=O)CC1=C(C)/C(=C/c2ccc([S+](C)[O-])cc2)c2ccc(F)cc21 (stereo not drawn) [Phospho-sulindac I] | 18 | 31 | 18 | 9 | 12 | 8 |  |  |  |  |  | 
2 | CCOP(=O)(OCC)OCC(COC(=O)c1ccccc1OC(C)=O)OP(=O)(OCC)OCC (stereo not drawn) [Glycero-phospho-aspirin II] | >8 | >6 | 100 | >12 | >8 | >12 |  |  |  |  |  | 
3 | CCCC(CCC)C(=O)Oc1ccc(COP(=O)(OCC)OCC)cc1 [Phosoho-VPA] |  |  |  |  |  |  | 35 | 136 | 245 | 62 | 35 | 47
4 | CCOP(=O)(OCC)OCCCCOC(=O)C(C)c1ccc(-c2ccccc2)c(F)c1 (stereo not drawn) [Phospho-Flurobiprofen] | 22 | 48 | 21 | 12 | 9 | 24 |  |  |  |  |  | 
5 | CCOP(=O)(OCC)OCCCCOC(=O)CC1=C(C)/C(=C/c2ccc(SC)cc2)c2ccc(F)cc21 [Phospho-sulindac II] | 30 | 30 | 17 | 12 | 11 | 15 |  |  |  |  |  | 
6 | CCOP1(=O)OCC(COC(=O)c2ccccc2OC(C)=O)O1 (stereo not drawn) [Glycero-phospho-aspirin I] | >63 | >10 | 74 | >12 | >7 | >32 |  |  |  |  |  | 

The amount applied is not stated for every result.
